Data on five substances can be found in PMC7302878.

Amino acid sequences for entries named in this document (tags omitted). A change or cut given only in a name is not applied to a line headed by its entry.
UniProt Q9SXZ2: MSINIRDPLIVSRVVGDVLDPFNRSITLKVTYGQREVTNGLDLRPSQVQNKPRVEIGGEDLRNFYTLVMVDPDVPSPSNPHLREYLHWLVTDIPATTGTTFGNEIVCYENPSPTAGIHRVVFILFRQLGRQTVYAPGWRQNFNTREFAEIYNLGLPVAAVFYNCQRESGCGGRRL
UniProt P25963: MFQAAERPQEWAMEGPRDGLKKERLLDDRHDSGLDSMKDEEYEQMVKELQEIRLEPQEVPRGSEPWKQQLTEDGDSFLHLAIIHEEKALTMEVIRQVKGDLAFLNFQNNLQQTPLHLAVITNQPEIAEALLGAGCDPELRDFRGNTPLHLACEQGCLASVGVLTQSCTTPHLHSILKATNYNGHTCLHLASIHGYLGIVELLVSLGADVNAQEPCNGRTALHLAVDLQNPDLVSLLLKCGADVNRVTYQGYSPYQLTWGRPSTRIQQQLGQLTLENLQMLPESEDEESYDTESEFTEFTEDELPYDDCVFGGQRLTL
UniProt Q96SW2: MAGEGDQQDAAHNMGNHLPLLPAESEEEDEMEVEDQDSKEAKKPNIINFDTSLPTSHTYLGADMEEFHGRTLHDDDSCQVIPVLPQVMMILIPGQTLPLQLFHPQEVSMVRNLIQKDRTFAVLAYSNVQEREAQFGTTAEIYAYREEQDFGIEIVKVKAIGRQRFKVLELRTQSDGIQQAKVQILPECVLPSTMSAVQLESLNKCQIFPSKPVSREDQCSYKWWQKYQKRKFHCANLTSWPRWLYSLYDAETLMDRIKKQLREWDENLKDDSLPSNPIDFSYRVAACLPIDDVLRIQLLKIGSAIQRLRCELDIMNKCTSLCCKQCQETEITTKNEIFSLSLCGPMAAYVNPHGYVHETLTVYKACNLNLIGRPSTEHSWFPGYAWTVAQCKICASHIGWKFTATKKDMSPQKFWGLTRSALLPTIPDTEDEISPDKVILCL
UniProt P0ABQ4: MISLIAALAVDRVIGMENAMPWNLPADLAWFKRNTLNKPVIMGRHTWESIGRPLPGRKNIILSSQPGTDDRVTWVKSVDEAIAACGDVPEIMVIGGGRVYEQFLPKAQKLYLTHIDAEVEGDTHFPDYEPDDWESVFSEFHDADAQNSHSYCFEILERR
UniProt Q00987: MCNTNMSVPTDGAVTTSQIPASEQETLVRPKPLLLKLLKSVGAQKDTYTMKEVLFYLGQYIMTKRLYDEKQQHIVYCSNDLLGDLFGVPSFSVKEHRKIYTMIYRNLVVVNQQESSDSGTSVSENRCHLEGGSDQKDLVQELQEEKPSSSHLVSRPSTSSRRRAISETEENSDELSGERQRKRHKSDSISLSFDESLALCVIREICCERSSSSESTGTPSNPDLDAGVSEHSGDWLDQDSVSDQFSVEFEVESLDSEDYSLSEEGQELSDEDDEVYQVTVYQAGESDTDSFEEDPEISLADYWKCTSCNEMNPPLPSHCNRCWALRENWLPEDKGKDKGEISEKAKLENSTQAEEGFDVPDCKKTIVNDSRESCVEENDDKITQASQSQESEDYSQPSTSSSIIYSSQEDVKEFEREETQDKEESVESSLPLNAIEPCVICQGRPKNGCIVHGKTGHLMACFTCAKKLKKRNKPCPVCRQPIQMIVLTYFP
UniProt Q9UJQ4: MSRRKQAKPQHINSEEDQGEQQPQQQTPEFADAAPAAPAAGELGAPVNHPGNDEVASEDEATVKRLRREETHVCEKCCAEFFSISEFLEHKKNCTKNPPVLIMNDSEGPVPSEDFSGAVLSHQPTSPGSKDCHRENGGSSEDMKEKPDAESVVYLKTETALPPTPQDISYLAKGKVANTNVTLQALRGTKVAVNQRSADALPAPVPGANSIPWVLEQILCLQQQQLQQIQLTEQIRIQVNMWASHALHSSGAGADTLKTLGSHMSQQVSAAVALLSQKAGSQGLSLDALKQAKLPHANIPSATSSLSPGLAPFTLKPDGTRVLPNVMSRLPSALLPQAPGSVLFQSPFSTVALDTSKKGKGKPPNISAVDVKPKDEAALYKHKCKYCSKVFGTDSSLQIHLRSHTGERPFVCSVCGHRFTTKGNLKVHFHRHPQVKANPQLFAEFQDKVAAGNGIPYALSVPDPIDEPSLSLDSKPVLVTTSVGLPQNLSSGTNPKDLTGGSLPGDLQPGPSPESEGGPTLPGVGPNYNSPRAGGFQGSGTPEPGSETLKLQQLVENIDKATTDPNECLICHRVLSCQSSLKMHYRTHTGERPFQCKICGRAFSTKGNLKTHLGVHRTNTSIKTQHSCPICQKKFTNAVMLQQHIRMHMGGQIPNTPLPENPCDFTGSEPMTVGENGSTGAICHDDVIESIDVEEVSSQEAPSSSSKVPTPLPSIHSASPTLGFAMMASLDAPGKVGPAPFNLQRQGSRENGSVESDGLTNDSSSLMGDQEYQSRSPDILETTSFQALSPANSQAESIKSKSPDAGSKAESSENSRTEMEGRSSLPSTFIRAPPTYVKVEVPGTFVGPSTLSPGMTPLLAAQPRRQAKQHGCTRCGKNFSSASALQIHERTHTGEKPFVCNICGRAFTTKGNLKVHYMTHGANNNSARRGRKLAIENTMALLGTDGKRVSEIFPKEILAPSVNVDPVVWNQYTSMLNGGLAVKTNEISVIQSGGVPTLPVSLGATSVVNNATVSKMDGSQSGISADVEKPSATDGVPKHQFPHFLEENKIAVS
UniProt P19838: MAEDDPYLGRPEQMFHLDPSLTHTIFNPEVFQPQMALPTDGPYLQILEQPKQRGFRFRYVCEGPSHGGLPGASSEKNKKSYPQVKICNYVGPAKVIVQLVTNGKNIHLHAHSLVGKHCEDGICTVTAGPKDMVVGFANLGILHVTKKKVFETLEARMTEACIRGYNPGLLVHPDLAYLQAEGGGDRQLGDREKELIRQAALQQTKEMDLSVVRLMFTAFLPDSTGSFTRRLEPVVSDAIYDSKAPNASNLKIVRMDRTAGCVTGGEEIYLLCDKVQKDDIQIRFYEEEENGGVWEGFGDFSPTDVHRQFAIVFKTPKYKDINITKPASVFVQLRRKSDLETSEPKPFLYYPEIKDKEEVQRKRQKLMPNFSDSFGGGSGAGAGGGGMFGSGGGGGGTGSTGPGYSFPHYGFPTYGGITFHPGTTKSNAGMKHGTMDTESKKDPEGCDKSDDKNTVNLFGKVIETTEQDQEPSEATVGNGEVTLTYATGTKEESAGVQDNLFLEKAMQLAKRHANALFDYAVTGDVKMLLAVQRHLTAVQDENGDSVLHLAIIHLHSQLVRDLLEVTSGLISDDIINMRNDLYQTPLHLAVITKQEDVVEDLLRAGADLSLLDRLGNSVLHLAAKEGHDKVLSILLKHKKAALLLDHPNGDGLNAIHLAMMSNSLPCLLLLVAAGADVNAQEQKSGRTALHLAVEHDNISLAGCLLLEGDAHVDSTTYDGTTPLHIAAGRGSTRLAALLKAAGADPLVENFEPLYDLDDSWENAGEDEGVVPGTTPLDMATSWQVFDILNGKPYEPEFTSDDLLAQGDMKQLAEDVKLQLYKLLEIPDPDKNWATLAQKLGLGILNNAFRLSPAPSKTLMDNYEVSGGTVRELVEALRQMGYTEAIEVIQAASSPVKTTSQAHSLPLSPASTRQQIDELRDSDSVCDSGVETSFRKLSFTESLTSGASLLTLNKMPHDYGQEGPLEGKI

The target of assay [1] is FT-AGIA-AirID (Arabidopsis) (UniProt Q9SXZ2). Put plainly: proximity labelling; co-translational: FT-AirID co-synthesised with AGIA-FD or AGIA-DHFR in the wheat cell-free system with 500 nM biotin, 16 hr at 16 °C; immunoblotting.
Assay [2] deals with AGIA-AVVA-RG-IκBα (human) (UniProt P25963). Put plainly: proximity labelling; in vitro: proteins synthesised in the wheat cell-free system mixed and incubated at 26 °C for 1 hr, then biotin (500 nM) at 26 °C for 1-16 hr; biotinylated prey detected by SDS-PAGE and anti-biotin immunoblotting.
Assay [3] addresses AGIA-AVVA-RS-IκBα (human) (UniProt P25963). The description is as above.
In assay [4] the target is AGIA-AirID-IκBα (wheat cell-free) (human) (UniProt P25963). Described as above.
Another assay has as its target AGIA-BioID-IκBα (human) (UniProt P25963). Described as above.
Assay [5] concerns the target AGIA-TurboID-IκBα (wheat cell-free) (human) (UniProt P25963). The assay is described as above.
For assay [6], the target named is AGIA-AirID-CRBN-YW/AA (HEK293T) (human) (UniProt Q96SW2). Put plainly: proximity labelling; in CRBN-knockout HEK293T cells co-expressing AGIA-AirID-CRBN and myc-IKZF1 or myc-SALL4; pomalidomide and MG132 for 6 hr, 5 µM biotin; immunoblotting.
Assay [7] has as its target AGIA-AirID-IκBα (HEK293T) (human) (UniProt P25963). Put plainly: proximity labelling; in HEK293T cells expressing the AirID or TurboID fusion (transient or stable), biotin 0-50 µM for 1-24 hr; RIPA lysis, 1% SDS, streptavidin pull-down, immunoblotting with protein-specific antibodies.

No constants are given. Whether binding was seen depends on the method and setting. In cells and extracts the contact can be indirect. Here binding means that the protein was enriched with, or labelled near, the bait; the list need not be complete. For part of these data: No binding means not detected with the bait.

On to AGIA-DHFR (from UniProt P0ABQ4 1-159), for which, in assay [1], the binding result was “no binding”.
Take “FLAG-GST-MDM2 (from UniProt Q00987 1-491)”: the binding result (in assay [2]; in assay [3]; in assay [4]; with AGIA-BioID-IκBα (human); in assay [5]) was “no binding” in each case.
As for myc-SALL4 (from UniProt Q9UJQ4 1-1053), the binding result in assay [6] is “no binding”.
Consider p50 (from UniProt P19838 1-433), for which the binding result in assay [7] is given as “binds”.
Take p105 (from UniProt P19838 1-968): the binding result in assay [7] is “binds”.
